Results taken from publication PMC4728126, “Stable G protein-effector complexes in striatal neurons: mechanism of assembly and role in neurotransmitter signaling” (eLife, 2015).
These are yes or no findings as the source states them, for the method shown. In cells and extracts the contact can be indirect. Some binding calls cover weakened binding; strength is not graded here.

The chains behind the UniProt entries cited, without tags or fusion partners.
UniProt P84309: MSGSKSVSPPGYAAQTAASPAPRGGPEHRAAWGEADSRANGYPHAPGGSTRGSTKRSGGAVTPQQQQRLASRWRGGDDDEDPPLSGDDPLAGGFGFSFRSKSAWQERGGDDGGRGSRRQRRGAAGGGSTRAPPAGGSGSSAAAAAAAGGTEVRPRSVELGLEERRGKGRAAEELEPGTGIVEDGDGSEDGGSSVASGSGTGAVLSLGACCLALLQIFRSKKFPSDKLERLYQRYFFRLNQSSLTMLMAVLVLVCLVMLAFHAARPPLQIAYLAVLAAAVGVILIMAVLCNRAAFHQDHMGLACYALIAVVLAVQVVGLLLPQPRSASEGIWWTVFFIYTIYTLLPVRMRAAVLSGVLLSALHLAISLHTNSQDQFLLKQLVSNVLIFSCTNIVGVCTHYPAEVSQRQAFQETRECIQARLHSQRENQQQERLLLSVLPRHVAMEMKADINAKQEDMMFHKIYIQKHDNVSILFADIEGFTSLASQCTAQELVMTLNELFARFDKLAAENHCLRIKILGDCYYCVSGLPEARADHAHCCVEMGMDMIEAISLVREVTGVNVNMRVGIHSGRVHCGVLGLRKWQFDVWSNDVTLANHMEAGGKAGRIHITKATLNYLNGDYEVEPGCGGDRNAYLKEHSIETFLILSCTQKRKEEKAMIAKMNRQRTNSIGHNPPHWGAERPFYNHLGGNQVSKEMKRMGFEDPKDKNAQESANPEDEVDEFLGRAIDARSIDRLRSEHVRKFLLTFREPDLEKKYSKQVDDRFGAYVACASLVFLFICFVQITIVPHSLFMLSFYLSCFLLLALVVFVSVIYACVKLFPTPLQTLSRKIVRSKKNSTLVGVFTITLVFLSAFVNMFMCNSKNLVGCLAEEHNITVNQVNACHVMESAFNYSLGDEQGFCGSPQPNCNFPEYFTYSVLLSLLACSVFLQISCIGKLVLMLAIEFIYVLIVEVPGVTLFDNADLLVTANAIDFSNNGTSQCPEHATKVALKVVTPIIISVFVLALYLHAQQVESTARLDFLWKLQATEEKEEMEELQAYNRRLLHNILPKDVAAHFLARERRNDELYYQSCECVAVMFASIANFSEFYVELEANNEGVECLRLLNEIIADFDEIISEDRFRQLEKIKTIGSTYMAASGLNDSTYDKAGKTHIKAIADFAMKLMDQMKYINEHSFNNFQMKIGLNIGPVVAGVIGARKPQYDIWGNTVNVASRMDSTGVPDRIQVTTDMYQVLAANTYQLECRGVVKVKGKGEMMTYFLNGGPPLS
UniProt P62879: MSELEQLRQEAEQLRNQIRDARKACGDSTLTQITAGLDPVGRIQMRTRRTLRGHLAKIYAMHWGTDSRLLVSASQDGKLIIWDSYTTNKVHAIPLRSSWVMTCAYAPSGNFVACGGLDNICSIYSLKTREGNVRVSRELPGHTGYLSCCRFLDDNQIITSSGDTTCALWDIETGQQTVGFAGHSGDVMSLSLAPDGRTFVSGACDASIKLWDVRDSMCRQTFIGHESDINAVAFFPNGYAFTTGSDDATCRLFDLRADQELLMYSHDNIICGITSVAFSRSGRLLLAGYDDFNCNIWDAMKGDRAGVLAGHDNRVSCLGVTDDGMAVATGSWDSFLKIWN
UniProt Q8CGK7: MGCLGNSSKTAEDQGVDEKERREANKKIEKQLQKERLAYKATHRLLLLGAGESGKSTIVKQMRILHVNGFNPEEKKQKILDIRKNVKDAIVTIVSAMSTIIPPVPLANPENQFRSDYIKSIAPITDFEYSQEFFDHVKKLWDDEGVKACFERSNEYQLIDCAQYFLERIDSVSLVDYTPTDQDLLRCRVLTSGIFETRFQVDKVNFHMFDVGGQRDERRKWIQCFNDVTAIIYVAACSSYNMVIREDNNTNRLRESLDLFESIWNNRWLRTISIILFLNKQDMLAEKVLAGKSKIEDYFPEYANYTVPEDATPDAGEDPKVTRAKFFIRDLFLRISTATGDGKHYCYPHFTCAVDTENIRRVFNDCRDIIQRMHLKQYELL
UniProt O60262: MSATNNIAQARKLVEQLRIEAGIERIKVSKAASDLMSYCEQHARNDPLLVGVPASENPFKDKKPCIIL

How the values were obtained:
[1] = molecular target: adenylyl cyclase type 5 (mouse (endogenous in striatum)) (UniProt P84309); assay: co-IP; anti-AC5 monoclonal antibody (3 μg) and protein G beads, 1 hr at 4°C, mouse striatal lysate in 1xPBS, 150 mM NaCl, 0.5% C12E9; no receptor stimulation; immunoblot; controls: non-immune IgG, Adcy5-/- tissue
Venus155-239-Gβ2 = Venus155-239-Gβ2 (UniProt P62879); assay: split reporter; split-Venus complementation of Venus155-239-Gβ2 and Venus1-155-Gγ7 in transfected HEK293 cells; Venus fluorescence intensity; without or with co-expressed PhLP1 or ΔNT-PhLP1

| Substance | binding [1] | binding (Venus155-239-Gβ2) |
| --- | --- | --- |
| Gαolf (from UniProt Q8CGK7 1-381) | binds |  |
| Venus1-155-Gγ7 (from UniProt O60262 1-68) |  | binds |
